Assay results taken from patent US10829452B2, “Histone methyltransferase inhibitors” (GLOBAL BLOOD THERAPEUTICS, INC., priority 2016, dated 2020).

Sequences of proteins named here, by UniProt entry; tags and fusion partners are left off.
UniProt Q96KQ7, whole entry: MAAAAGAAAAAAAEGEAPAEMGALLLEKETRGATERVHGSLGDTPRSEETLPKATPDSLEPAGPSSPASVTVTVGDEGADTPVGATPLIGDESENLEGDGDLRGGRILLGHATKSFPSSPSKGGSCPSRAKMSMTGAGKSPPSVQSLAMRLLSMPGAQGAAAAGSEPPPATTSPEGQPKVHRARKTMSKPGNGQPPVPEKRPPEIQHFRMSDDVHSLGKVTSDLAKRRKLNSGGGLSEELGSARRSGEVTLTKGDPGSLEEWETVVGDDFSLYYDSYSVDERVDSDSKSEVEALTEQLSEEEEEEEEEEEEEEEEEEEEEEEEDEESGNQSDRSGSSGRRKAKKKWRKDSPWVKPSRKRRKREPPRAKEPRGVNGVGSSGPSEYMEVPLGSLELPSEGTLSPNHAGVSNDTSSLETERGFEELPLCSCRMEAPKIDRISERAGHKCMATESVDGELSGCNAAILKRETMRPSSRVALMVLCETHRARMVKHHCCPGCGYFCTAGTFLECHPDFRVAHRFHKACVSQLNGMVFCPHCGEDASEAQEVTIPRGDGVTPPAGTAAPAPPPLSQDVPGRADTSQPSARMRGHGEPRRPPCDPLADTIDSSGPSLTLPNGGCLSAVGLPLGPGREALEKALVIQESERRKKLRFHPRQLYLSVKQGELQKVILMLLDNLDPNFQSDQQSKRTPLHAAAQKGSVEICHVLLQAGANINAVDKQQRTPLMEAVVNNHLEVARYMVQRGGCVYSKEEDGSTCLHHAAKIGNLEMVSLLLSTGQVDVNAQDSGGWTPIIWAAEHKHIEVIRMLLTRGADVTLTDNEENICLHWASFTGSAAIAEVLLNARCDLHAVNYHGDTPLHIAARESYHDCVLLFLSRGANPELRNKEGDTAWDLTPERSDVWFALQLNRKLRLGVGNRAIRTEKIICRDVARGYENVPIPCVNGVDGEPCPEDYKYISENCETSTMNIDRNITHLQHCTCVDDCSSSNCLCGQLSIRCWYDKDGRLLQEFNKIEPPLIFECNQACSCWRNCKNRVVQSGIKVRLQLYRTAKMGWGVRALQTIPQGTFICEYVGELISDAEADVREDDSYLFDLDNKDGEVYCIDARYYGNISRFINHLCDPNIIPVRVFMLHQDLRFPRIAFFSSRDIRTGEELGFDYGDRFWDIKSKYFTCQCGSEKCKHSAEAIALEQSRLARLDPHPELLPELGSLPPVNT

Biological target: G9a (Homo sapiens, UniProt Q96KQ7)
Assay: G9a AlphaLISA enzymatic activity assay
Details: read-out: G9a in (uM) (IC50, concentration that produced 50% inhibition); 0.15 nM G9a, 15 uM S-adenosyl-methionine, 100 nM biotinylated histone 3 peptide (1-21), 1 hour at room temperature; tested form: formate; Formate Salt
From the text: The G9a AlphaLISA assay was used to detect the methyl modifications of a biotinylated histone H3 peptide by the compounds. These modifications are done by the histone methyl transferase activity of the G9a enzyme. The assay consists of reading a chemiluminescent signal at 615 nm; this signal is generated by a laser excitation at 680 nm that transfers a reactive singlet oxygen between the donor beads and acceptor beads. Donor beads are streptavidin conjugated and bind to the biotin on the peptide. Acceptor beads are conjugated with an antibody that recognizes the specific G9a methyl mark on the peptide. If there is a methyl mark on the peptide, the acceptor beads will bind to the peptide. Upon binding, the acceptor beads will be in close proximity (<200 nm) of the donor beads and when the donor beads are excited, the transfer of the oxygen can occur and a strong signal will be generated. […]
For the assay, the following buffer was used to set up reactions: 50 mM Tris-HCl pH9, 50 mM NaCl, 0.01% Tween-20 and 1 mM DTT (added fresh prior to starting the reactions). […] Signal is detected in an EnVision plate reader in Alpha mode (see ACS Med Chem Lett. 2014 Jan. 2; 5(2):205-9. doi: 10.1021/m1400496h. eCollection 2014. Discovery and development of potent and selective inhibitors of histone methyltransferase g9a.) […]

`COc1cc2c3c(c(NC4CCCC(O)C4)nc2cc1OCCCN1CCCC1)CCC3` (racemic) was tested, and the IC50 was 73 nM and 160 nM.

The source holds more than one record for some entries. This is not the full list of results. An entry can have further records. Values that stand side by side appear to be repeats on other runs, samples or individuals.
